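Human melanoma cell lines in 1,536-well plates were treated with a pair of drugs for 72 h, then fixed, stained and imaged. Each value is the cleaved-PARP-positive fraction of nuclei relative to DMSO-treated wells, in %, so that 100 equals the control and higher values mean more apoptosis. Concentrations were fixed for each drug; these are the higher of two levels. These are primary screening values without error estimates. The marker varies much from line to line, for technical or biological reasons.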 An unselected part of the screen is shown. A dash means that no value is listed here.

Drug key:
fludarabine (1 µM): Nc1nc(F)nc2c1ncn2[C@@H]1O[C@H](CO)[C@@H](O)[C@@H]1O
tozasertib (0.03 µM): Cc1cc(Nc2cc(N3CCN(C)CC3)nc(Sc3ccc(NC(=O)C4CC4)cc3)n2)n[nH]1
ENMD-2076 (0.2 µM): Cc1cc(Nc2cc(N3CCN(C)CC3)nc(/C=C/c3ccccc3)n2)n[nH]1
sunitinib (2 µM): CCN(CC)CCNC(=O)c1c(C)[nH]c(/C=C2\C(=O)Nc3ccc(F)cc32)c1C
Src-I1 (10 µM): COc1cc2ncnc(Nc3ccc(Oc4ccccc4)cc3)c2cc1OC
CHIR-265 (0.4 µM): Cn1c(Nc2ccc(C(F)(F)F)cc2)nc2cc(Oc3ccnc(-c4ncc(C(F)(F)F)[nH]4)c3)ccc21
gemcitabine (0.002 µM): Nc1ccn([C@@H]2O[C@H](CO)[C@@H](O)C2(F)F)c(=O)n1
vismodegib (5 µM): CS(=O)(=O)c1ccc(C(=O)Nc2ccc(Cl)c(-c3ccccn3)c2)c(Cl)c1

| Combination | LB2518-MEL | MEL-HO | WM3526 | IST-MEL1 | SK-MEL-30 | MZ2-MEL | WM1745 | RPMI-7951 | C32 | COLO 829 | RVH-421 | LOX IMVI | G-361 | IPC-298 | COLO 800 |
|---|---|---|---|---|---|---|---|---|---|---|---|---|---|---|---|
| fludarabine and gemcitabine | 189 | 309 | 4240 | 489 | 1770 | 226 | 183 | 200 | 75.5 | 317 | 233 | 158 | 310 | 368 | 402 |
| vismodegib and tozasertib | 55.6 | 41.7 | 101 | 104 | 64.6 | 184 | 166 | 84.9 | 144 | 146 | 23.5 | 45.6 | 104 | 118 | 155 |
| Src-I1 and tozasertib | 123 | 197 | 483 | 93.2 | 288 | 91.9 | - | 418 | 90.2 | 78.8 | 243 | 29.3 | 144 | 134 | 146 |
| Src-I1 and CHIR-265 | 196 | 136 | 1360 | 39.7 | 173 | 114 | 265 | 169 | 158 | 192 | 160 | 97.8 | 95.5 | 168 | 69.3 |
| tozasertib and gemcitabine | 114 | 182 | 68.0 | 316 | 129 | 449 | 215 | 195 | 233 | 357 | 102 | 136 | 296 | 421 | 224 |
| Src-I1 and vismodegib | 104 | 87.8 | 151 | 338 | 119 | 134 | - | 248 | 78.9 | 82.6 | 259 | 81.9 | 105 | 44.0 | 79.4 |
| sunitinib and Src-I1 | 140 | 137 | 311 | 27.6 | 147 | 66.0 | - | 462 | 102 | 64.0 | 74.7 | 56.1 | 3120 | 66.6 | 170 |
| CHIR-265 and gemcitabine | 288 | 103 | 380 | 386 | 183 | 353 | 140 | 140 | 271 | 289 | 800 | 56.6 | 1170 | 377 | 160 |
| tozasertib and sunitinib | 286 | 45.0 | 258 | 145 | 166 | 364 | 207 | 119 | 77.6 | 138 | 73.5 | 173 | 41.8 | 240 | 138 |
| tozasertib and fludarabine | 154 | 166 | 2960 | 146 | 3240 | 380 | 150 | 185 | 422 | 124 | 275 | 129 | 192 | 223 | 290 |
| sunitinib and fludarabine | 293 | 154 | 3700 | 93.0 | 1610 | 95.0 | 145 | 57.8 | 90.9 | 85.4 | 80.7 | 37.7 | 189 | 184 | 84.1 |
| gemcitabine and Src-I1 | 27.2 | 60.6 | 270 | 187 | 70.1 | 122 | - | 306 | 105 | 367 | 168 | 87.7 | 84.6 | 284 | 223 |
| CHIR-265 and fludarabine | 876 | 167 | 2090 | 227 | 1030 | 221 | 211 | 267 | 159 | 190 | 284 | 192 | 443 | 339 | 29.1 |
| CHIR-265 and ENMD-2076 | - | 187 | 392 | 80.6 | 164 | - | 161 | 117 | 95.1 | 256 | 197 | 289 | 408 | 276 | 87.1 |
| gemcitabine and sunitinib | 142 | 53.4 | 172 | 689 | 175 | 130 | 216 | 102 | 122 | 199 | 99.3 | 90.7 | 113 | 462 | 258 |
| CHIR-265 and tozasertib | 149 | 105 | 516 | 85.1 | 157 | 201 | 194 | 114 | 44.1 | 360 | 159 | 140 | 2320 | 140 | 274 |
| ENMD-2076 and sunitinib | 193 | 173 | 315 | 33.8 | 187 | 170 | 139 | 69.0 | 35.2 | 46.8 | 159 | 93.6 | 120 | 137 | 99.5 |
| CHIR-265 and vismodegib | 208 | 34.3 | 410 | 107 | 147 | 282 | 127 | 146 | 227 | 157 | 101 | 113 | 495 | 847 | 94.4 |
| vismodegib and gemcitabine | 81.9 | 109 | 66.8 | 327 | 83.3 | 103 | 136 | 157 | 59.7 | 704 | 76.9 | 107 | 202 | 284 | 294 |
| fludarabine and vismodegib | 62.4 | 57.2 | 2370 | 139 | 1080 | 109 | 76.4 | 72.4 | 50.0 | 57.3 | 87.6 | 87.1 | 96.6 | 62.0 | 95.0 |
| sunitinib and vismodegib | 213 | 106 | 320 | 65.1 | 273 | 76.6 | 156 | 336 | 105 | 77.3 | 148 | 185 | 133 | 85.2 | 232 |
| gemcitabine and ENMD-2076 | 245 | 94.4 | 79.1 | 196 | 80.6 | 224 | 198 | 370 | 102 | 215 | 377 | 135 | 318 | 580 | 137 |
| tozasertib and ENMD-2076 | - | 169 | 109 | 74.0 | 126 | - | 206 | 380 | 383 | 120 | 98.8 | 127 | 69.2 | 174 | 270 |
| vismodegib and ENMD-2076 | 39.9 | 385 | 198 | 163 | 66.6 | 80.9 | 136 | 144 | 109 | 186 | 131 | 66.8 | 46.1 | 58.5 | 55.8 |
| ENMD-2076 and fludarabine | 93.4 | 153 | 5120 | 63.5 | 2790 | 146 | 148 | 406 | 99.3 | 126 | 72.0 | 216 | 232 | 81.2 | 82.2 |
| sunitinib and CHIR-265 | 152 | 77.6 | 1260 | 125 | 434 | 113 | 224 | 325 | 423 | 192 | 317 | 151 | 574 | 486 | 60.6 |
| ENMD-2076 and Src-I1 | - | 178 | 175 | 186 | 74.2 | - | - | 170 | 77.1 | 86.3 | 82.8 | 137 | 139 | 74.0 | 95.3 |
| Src-I1 and fludarabine | 189 | 111 | 1160 | 53.0 | 705 | 72.5 | - | 97.8 | 76.7 | 40.3 | 58.2 | 111 | 132 | 58.6 | 93.9 |

For reference, 2 entries once more:

Combination,LB2518-MEL,MEL-HO,WM3526,IST-MEL1,SK-MEL-30,MZ2-MEL,WM1745,RPMI-7951,C32,COLO 829,RVH-421,LOX IMVI,G-361,IPC-298,COLO 800
vismodegib and tozasertib,55.6,41.7,101,104,64.6,184,166,84.9,144,146,23.5,45.6,104,118,155
CHIR-265 and tozasertib,149,105,516,85.1,157,201,194,114,44.1,360,159,140,2320,140,274

Source: doi:10.1371/journal.pone.0140310, primary screening data, rounded.